According to patent US5849866 (dated 1998):

Experiment: general procedure: solution-phase peptide synthesis; isobutylchloroformate / N-methylmorpholine (mixed anhydride)

For “1,1,1-Trifluoro-3-[(N-acetylprolyl)alanylprolylamino]butan-2-ol”, the step yield (coupling step) was 23%.

“1,1,1-Trifluoro-3-[(N-tert-butyloxycarbonylalanyl)alanylprolylamino]-4-methylpentan-2-ol” gave a step yield (coupling step) of 76%.

“1,1,1-Trifluoro-3-[alanyl-alanylprolylamino]-4-methylpentan-2-one” showed a step yield (late stage modification step) of 96%.

“3-[(N-acetylprolyl)alanylprolylamino]-2-hydroxybutanoic acid, methyl ester” gave a step yield (coupling step) of 36%.

For “4-[Methoxysuccinyl-L-alanyl-L-alanyl-L-prolyl]amino 2,2-difluoro 5-methyl 3-oxo hexanoic acid, ethyl ester”, the step yield (late stage modification step) was 65%.

“4-[methoxysuccinyl L-alanyl-L-alanyl-L-prolyl]amino 2,2-difluoro 3-hydroxy 5-methyl hexenoic acid, ethyl ester” showed a step yield (coupling step) of 85%.

With “Dansyl peptide 1,1,1-Trifluoro-3-(alanylalanylprolylamino)-4-methylpentan-2-one” the conjugation yield (conjugation step) was 68%.
